Measurements published in PubChem BioAssay AID504467 (National Center for Advancing Translational Sciences (NCATS), 2011).
About 7,700 (2.3%) of roughly 330,000 compounds were called active. Inconclusive results, whose numbers are uncertain, are shown with a selection of clear calls. The call rests on the fitted dose curve; in most records, active means well fitted inhibition curve with a large enough effect; inconclusive means small, poorly fitted or top-dose-only effect, or effect the other way; inactive means flat fitted curve, though single readings scatter. Potencies of inconclusive entries are doubtful fits and often do not repeat.

Assay: qHTS screen for small molecules that inhibit ELG1-dependent DNA repair in human embryonic kidney (HEK293T) cells expressing luciferase-tagged ELG1; further: nearly all actives have a fitted effect of over 55% in size
Settings: HEK293T ELG1-luciferase reporter, luminescence, 16 h, DNA damage induced by 5-fluorouridine; activity change, negative = inhibition: at 46.1 µM (top of the series)
Source text: NIH Molecular Libraries Probe Production Network [MLPCN] NIH Chemical Genomics Center [NCGC] MLPCN Grant: 1 R03 MH092164-01 Assay Provider: Kyungjae Myung, NHGRI, NIH Keywords: MLPCN, qHTS, NCGC, genotoxicity, cancer Assay Overview: Cancer cells divide rapidly compared to normal cells in the body. During cell division, cancer cells need to duplicate their genome by DNA replication. The failure of genome duplication leads to cancer cells' death. Therefore, inhibitors of DNA replication could specifically kill cancer cells. Based on this concept, many chemotherapeutic agents were developed and have been used to treat cancer patients. However, there are a limited number of agents available in the clinical setting, and some of those that do exist have low efficacy and severe side effects. Therefore, if we can find the compounds that effectively block DNA replication either by directly damaging DNA or by inhibiting other cellular mechanisms, the options for cancer treatment will be broadened. With this in mind, we developed a quantitative high-throughput ELG1-luciferase reporter gene assay. Small molecules that specifically block ELG1 function in response to DNA damage can be identified by monitoring the suppression of luciferase activity. Since ELG1 defines a pathway for repairing DNA damage, agents blocking ELG1 function can be used to sensitize cancer cells to chemotherapeutic agents whose mechanism of action involves the induction of DNA damage.
Assay Protocol Summary: For genotoxicity screening, 2,000 cells in 4 uL/well were dispensed into white, solid-bottom 1536-well plates using a solenoid-based dispenser. Following transfer of 1 uL 5-Fluorouridine and 23 nL compound or DMSO vehicle by a pin tool, the plates were incubated 16 hr at 37 °C and 5% CO2. 5 ul ONE-Glo (Promega) was then added to each plate and following a 30 min incubation at room temperature, luciferase activity was quantified on a ViewLux CCD-based plate reader.
On the % scale 0 is the no-effect control and ±100 the full control effect; potency means the concentration at half of the fitted maximal effect.

Q: For CCOC(=O)C(=CNc1ccc(C(O)(C(=O)OCC)C(F)(F)F)cc1C)C(=O)OCC (stereo not given), which Potency is on record?
A: active: 18.4 µM

Q: Which “activity change, negative = inhibition” value does the source give for CCCC[N+]12CCC(CC1)C(C(O)(c1ccccc1)c1ccccc1)C2 (stereo not given) here?
A: inactive: -11.6%

Q: Which Potency does the source give for CN1C(=O)C(O)N=C(c2ccccc2)c2ccccc21 (stereo not given) here?
A: inconclusive: 20.6 µM [activator, partial curve, poor fit]

Q: Which Potency does the source give for O=[N+]([O-])c1ccc(N2CCNCC2)cc1NC1CC1 here?
A: inconclusive: 20.6 µM [activator, partial curve]

Q: Which “activity change, negative = inhibition” value does the source give for FC(F)(F)Oc1ccc(NC2=NCCCS2)cc1 here?
A: inactive: 21.4%

Q: Which Potency does the source give for C=CCn1c(O)c(C(CC)=NC(C)c2ccccc2)c(=O)[nH]c1=O (stereo not given) here?
A: inconclusive: 2.31 µM [activator, full curve]

Q: With CCCCn1c(O)c(C(CC)=NCc2ccc3c(c2)OCO3)c(=O)[nH]c1=O as the molecule, how does the Potency read?
A: inconclusive: 25.9 µM [inhibitor, single point]

Q: For NC(=O)c1cccc(-c2cccc(OC(=O)NC3CCCCC3)c2)c1, which Potency is on record?
A: inconclusive: 20.6 µM [activator, single point]

Q: Which Potency does the source give for O=C(Cc1ccccc1[N+](=O)[O-])N1CCN(Cc2ccc3c(c2)OCO3)CC1 here?
A: inconclusive: 14.6 µM [inhibitor, partial curve]

Q: With COc1cc(CN=C(C)c2c(O)n(C3CCCCC3)c(=O)[nH]c2=O)cc(OC)c1 as the molecule, how does the Potency read?
A: inconclusive: 14.6 µM [inhibitor, partial curve]

Q: For COc1ccc(N=C(C)c2c(O)[nH]c(=O)[nH]c2=O)cc1, which “activity change, negative = inhibition” value is on record?
A: inactive: 7.79%

Q: For COc1cc(/C=C(/C)[N+](=O)[O-])ccc1OCc1ccccc1Cl, which Potency is on record?
A: inconclusive: 29.1 µM [inhibitor, single point]

Q: For N=C1c2ccccc2CN1NC(=O)c1ccco1, which Potency is on record?
A: inconclusive: 18.3 µM [activator, partial curve, poor fit]

Q: For CC(C)CCn1c(=O)c(C(=O)Nc2ccccc2S(N)(=O)=O)c(O)c2ccccc21, which “activity change, negative = inhibition” value is on record?
A: inactive: 1.02%

Q: Which Potency does the source give for OC(c1cccc(Cl)c1)(c1cccc(Cl)c1)C1CN2CCC1CC2 (stereo not given) here?
A: inconclusive: 29.1 µM [inhibitor, single point]

Q: For COc1cccc(-n2c(/C=C/c3ccccn3)nc3ccccc3c2=O)c1, which Potency is on record?
A: inconclusive: 29.1 µM [inhibitor, single point]

Q: With Cc1cc(=O)oc2cc(OCC(=O)N3C[C@H]4C[C@@H](C3)c3cccc(=O)n3C4)c(Cl)cc12 as the molecule, how does the Potency read?
A: inconclusive: 0.184 µM [inhibitor, single point]

Q: Which “activity change, negative = inhibition” value does the source give for COc1ccc(C(=O)C2CCCN(Cc3ccc(C)s3)C2)c(OC)c1 (stereo not given) here?
A: inactive: -16.5%

Q: Which Potency does the source give for Cc1ccc(N)cc1N here?
A: inconclusive: 16.4 µM [activator, partial curve]

Q: With Cc1ccc(CN2CCCN(Cc3ccc(C)cc3)S2(=O)=O)cc1 as the molecule, how does the Potency read?
A: inconclusive: 29.1 µM [activator, single point]

Q: For COc1ccc(CN2C(=O)NC(=O)/C(=C/c3ccc(OC)c(OC)c3OC)C2=O)cc1, which Potency is on record?
A: inconclusive: 0.517 µM [inhibitor, partial curve]

Q: Which “activity change, negative = inhibition” value does the source give for O=C(NC1CCCCC1)Oc1cc2oc(=O)sc2cc1Cl here?
A: inactive: -12.4%

Q: For Cc1ccc(N2C(=O)/C(=C/N3CCN(C(=O)c4ccco4)CC3)C(=O)NC2=S)cc1C, which “activity change, negative = inhibition” value is on record?
A: inactive: 8.26%

Q: For COc1ccc(COC(=O)CCNC(=O)c2ccc(Cl)cc2)cc1, which Potency is on record?
A: inconclusive: 17.8 µM [activator, single point]

Q: For COc1ccccc1-n1c(/C=C/c2ccc(O)cc2)nc2ccccc2c1=O, which Potency is on record?
A: inconclusive: 4.11 µM [inhibitor, single point]

Q: Which “activity change, negative = inhibition” value does the source give for Cn1ccnc1P(=S)(c1nccn1C)N1CCOCC1 here?
A: inactive: -0.219%

Q: Which Potency does the source give for CC(=O)/C=C/c1ccccc1 here?
A: inconclusive: 11.6 µM [activator, single point]

Q: With COC(=O)C1=C(c2ccc(Cl)c(C(F)(F)F)c2)C[C@@H]2CC[C@H]1N2C(=O)NCc1ccc2c(c1)OCO2 as the molecule, how does the Potency read?
A: inconclusive: 18.3 µM [inhibitor, partial curve, poor fit]

Q: For COc1ccc(NC(=O)c2ccc(COCC(F)(F)C(F)F)cc2)cc1, which Potency is on record?
A: inconclusive: 3.26 µM [activator, partial curve]

Q: For CCn1ccnc1CN1CCCC(C(=O)c2ccc(OC)cc2OC)C1 (stereo not given), which “activity change, negative = inhibition” value is on record?
A: inactive: -0.737%

Q: For O=C(Nc1ccc(C(F)(F)F)cc1)OC1CN2CCC1CC2 (stereo not given), which Potency is on record?
A: inconclusive: 14.6 µM [activator, partial curve, poor fit]

Q: For CN1C(=O)C(=Cc2ccccc2OCc2ccccc2Cl)C(=O)N(C)C1=O, which “activity change, negative = inhibition” value is on record?
A: inactive: 14.9%

Q: With Cc1cc(OC(=O)c2ccco2)c2c3c(c(=O)oc2c1)CCCC3 as the molecule, how does the Potency read?
A: inconclusive: 18.4 µM [inhibitor, partial curve]

Q: With CC(C)CNC(=O)c1c(N)n(Cc2ccc3c(c2)OCO3)c2nc3ccccc3nc12 as the molecule, how does the Potency read?
A: inconclusive: 18.4 µM [inhibitor, single point]

Q: Which “activity change, negative = inhibition” value does the source give for Cc1nn(CCC#N)c2c1P(=S)(N1CCCC1)OC(c1ccc(F)cc1)=N2 (stereo not given) here?
A: inactive: -1.12%

Q: For CN(C)c1ccc(/C=C2/C(=N\O)C3CCN2CC3)cc1, which Potency is on record?
A: inconclusive: 14.6 µM [activator, partial curve]

Q: Which Potency does the source give for Cn1nc(OC(=O)Nc2ccccc2)cc1C(F)(F)F here?
A: inconclusive: 16.4 µM [activator, single point]

Q: Which Potency does the source give for CC(=O)N1CC(=O)Nc2ccc(Cl)cc2C1c1ccccc1 (stereo not given) here?
A: inconclusive: 0.164 µM [activator, full curve, poor fit]

Q: With Cc1nc2ccc(Cl)cc2c(-c2ccccc2)c1C(=O)O as the molecule, how does the “activity change, negative = inhibition” value read?
A: inactive: 5.68%

Q: For CNC(=O)OCc1n(C)cc[n+]1C, which “activity change, negative = inhibition” value is on record?
A: inactive: -3.05%

Q: Which Potency does the source give for C[C@]12CC[C@H]3[C@@H](CC[C@]4(O)C[C@@H](O)CC[C@]34C=O)[C@@]1(O)CC[C@@H]2C1=CC(=O)OC1 here?
A: inconclusive: 1.41 µM [inhibitor, full curve, poor fit]

Q: Which Potency does the source give for Nc1c(C(=O)NCc2ccco2)c2nc3ccccc3nc2n1CCN1CCOCC1 here?
A: inconclusive: 25.9 µM [inhibitor, partial curve]

Q: Which Potency does the source give for N=C1c2ccccc2CN1CC(=O)c1ccccc1 here?
A: inconclusive: 2.31 µM [activator, full curve]

Q: For CN1C(C(=O)NCc2cccc(C(F)(F)F)c2)CC2Cn3c(nc4cc5ccccc5cc43)C21 (stereo not given), which Potency is on record?
A: inconclusive: 18.3 µM [inhibitor, single point]

Q: With Cc1ccc(Cn2nnnc2CN2CCC(n3nnc4cc(C)ccc43)CC2)cc1 as the molecule, how does the Potency read?
A: inconclusive: 35.5 µM [inhibitor, single point]

Q: With C[C@H]1C[C@@H](C)C(=O)[C@@H]([C@H](O)CC2CC(=O)NC(=O)C2)C1 as the molecule, how does the Potency read?
A: active: 0.517 µM

Q: With Cc1c(C(=O)NCCC2=CCCCC2)oc2ccc(S(=O)(=O)N3CCC4(CC3)OCCO4)cc12 as the molecule, how does the Potency read?
A: inconclusive: 25.9 µM [inhibitor, partial curve, poor fit]

Q: Which Potency does the source give for COC(=O)C1=C(c2ccc(OC)c(OC)c2)C[C@@H]2CC[C@H]1N2C(=O)NCc1cccc2ccccc12 here?
A: inconclusive: 18.3 µM [inhibitor, single point]

Q: Which “activity change, negative = inhibition” value does the source give for O=C(Cn1cc(C(=O)c2ccccc2F)c2ccccc21)NC1CC1 here?
A: inactive: 7.65%

Q: Which “activity change, negative = inhibition” value does the source give for Cc1c(C(=O)O)cc(-c2ccccc2)n1Cc1ccccc1 here?
A: inactive: -2.49%

Q: With COC(=O)C1=C(c2cccc(Cl)c2)C[C@@H]2CC[C@H]1N2C(=O)NCC1CC1 as the molecule, how does the “activity change, negative = inhibition” value read?
A: inactive: 12.8%

Q: Which Potency does the source give for CC/C(=N\Nc1ccccc1)c1c(O)[nH]c(=O)[nH]c1=O here?
A: active: 4.11 µM

Q: With CC1=CC(=C2C(=O)NC(=O)NC2=O)C=C(C(F)(F)F)N1C(C)C as the molecule, how does the “activity change, negative = inhibition” value read?
A: inactive: 16.6%

Q: With O=C(/C=C/c1cccs1)c1cc(Cl)ccc1OC(=O)N1CCOCC1 as the molecule, how does the Potency read?
A: active: 18.4 µM

Q: Which Potency does the source give for CCn1c(=O)cc(SCC(=O)N2CCC3(CC2)OCCO3)c2ccccc21 here?
A: inconclusive: 16.4 µM [activator, partial curve]

Q: Which Potency does the source give for Cc1ccc(C(C)(C)NC(=O)C2CCC(=O)N(C3CCCCCC3)C2)cc1 (stereo not given) here?
A: inconclusive: 20.6 µM [activator, partial curve]

Q: Which Potency does the source give for Cc1cc(Br)c(NC(=O)CN2CC=C(c3ccccc3)CC2)c(Br)c1 here?
A: inconclusive: 29.1 µM [inhibitor, single point]

Q: Which Potency does the source give for O=C(OC1CC2CCC(N2)C1C(=O)O)c1ccccc1 (stereo not given) here?
A: inconclusive: 29.1 µM [activator, single point]

Q: For CCOC(=O)c1c(N)n(CCCOC(=O)c2ccco2)c2nc3ccccc3nc12, which Potency is on record?
A: inconclusive: 23.1 µM [inhibitor, single point]

Q: With CCC(=NCc1cc(OC)cc(OC)c1)c1c(O)n(C2CCCCC2)c(=O)[nH]c1=O as the molecule, how does the Potency read?
A: active: 16.4 µM

Q: For Cc1ccc(OP(=O)(Nc2cccc(C)c2)Oc2ccc(C)cc2)cc1, which Potency is on record?
A: inconclusive: 29.1 µM [inhibitor, single point]

Q: Which “activity change, negative = inhibition” value does the source give for O=[N+]([O-])c1ccc(C2[C@H]3C(c4ccccc4)=NC4(CCCC4)N23)cc1 (stereo not given in full) here?
A: inactive: -11.5%

Q: With O=C1NC(=O)C(CCc2ccncc2)(CCc2ccncc2)C(=O)N1Cc1ccc(F)cc1 as the molecule, how does the “activity change, negative = inhibition” value read?
A: inactive: 11.1%

Q: With CC(C)(C#N)Nc1ccccc1 as the molecule, how does the Potency read?
A: inconclusive: 0.231 µM [activator, full curve, poor fit]

Q: Which “activity change, negative = inhibition” value does the source give for CCN(CC)CCCNC(=O)c1c(O)c2ccccc2n(Cc2ccccc2)c1=O here?
A: inactive: 6.03%

Q: Which Potency does the source give for CN(C)CCN(C(=O)COc1ccc(Cl)cc1)c1nc2cc3c(cc2s1)OCO3 here?
A: inconclusive: 20.6 µM [activator, single point]

Q: For Cc1ccc2nc3c(cc2c1)CC1(C(=O)N(C)C(=O)N(C)C1=O)C1CCCCN31 (stereo not given), which Potency is on record?
A: inconclusive: 9.2 µM [activator, partial curve]

Q: Which “activity change, negative = inhibition” value does the source give for COc1ccc(C(=O)C(C)(C)NO)cc1 here?
A: inactive: 1.53%

Q: For O=C1NC(=O)N(CCc2ccc(F)cc2)C(=O)/C1=C\C=C\c1ccccc1, which Potency is on record?
A: inconclusive: 29.1 µM [activator, single point]

Q: With O=C1C2CCCN2C(c2cccs2)N1c1ccc(Cl)cc1 (stereo not given) as the molecule, how does the Potency read?
A: inconclusive: 18.4 µM [activator, partial curve, poor fit]
